Experimental data: PubChem BioAssay AID493246 (Drosophila RNAi Screening Center, 2011)
The deposit covers about 21,000 reagents; shown is an unselected part of those with a known target gene and a result. In the full data, 429 (2%) were called active. 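Values are raw and not normalised between plates; calls rest on per-plate z-scores that were not deposited.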 Names joined by + are all predicted targets of the reagent. Not stated in the record: the amount of reagent, the time to read-out.

Screen: 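Genes fly cells need to grow and stay alive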 (primary screen)
Cells: Drosophila Kc and S2R+ cells
Knock-down reagent: long dsRNA against Drosophila genes
Measurement: 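Cell number per well after knock-down, printed as raw plate values; calls were based on per-plate z-scores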
Direction: Kc cell number and S2R+ cell number: higher = more cells remaining
Active means: 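Counted as a hit if cell number falls by a z-score of at least 3 within its plate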

The opening 4 entries, to show the layout:
no.	target gene	dsRNA	Kc cell number, rep 1	Kc cell number, rep 2	S2R+ cell number, rep 1	S2R+ cell number, rep 2	Outcome
1	t-cup (tetleys-cup)	DRSC01254	1.60e6	1.71e6	1.15e6	1.29e6	inactive
2	CG4041	DRSC18339	1.60e6	1.59e6	1.09e6	1.21e6	inactive
3	CG2681	DRSC18464	5.54e5		8.35e5		inactive
4	CG30001	DRSC05191	1.52e6	1.58e6	9.55e5	1.12e6	inactive

The list itself, from the start:
no.	target gene	dsRNA	Kc cell number, rep 1	Kc cell number, rep 2	S2R+ cell number, rep 1	S2R+ cell number, rep 2	Outcome
1	t-cup (tetleys-cup)	DRSC01254	1.60e6	1.71e6	1.15e6	1.29e6	inactive
2	CG4041	DRSC18339	1.60e6	1.59e6	1.09e6	1.21e6	inactive
3	CG2681	DRSC18464	5.54e5		8.35e5		inactive
4	CG30001	DRSC05191	1.52e6	1.58e6	9.55e5	1.12e6	inactive
5	Rpp20 + CG33932	DRSC19467	1.57e6	1.60e6	1.04e6	1.17e6	inactive
6	bib (big brain)	DRSC03496	1.33e6	1.38e6	1.19e6	1.24e6	inactive
7	NP15.6	DRSC16756	1.39e6	1.39e6	1.01e6	1.08e6	inactive
8	CrzR (Corazonin receptor)	DRSC09781	1.66e6	1.55e6	1.46e6	1.47e6	inactive
9	CrzR (Corazonin receptor)	DRSC09782	1.63e6	1.69e6	1.48e6	1.49e6	inactive
10	CG33177	DRSC19949	1.66e6	1.65e6	1.21e6	1.26e6	inactive
11	CG2145	DRSC19835	5.94e5		8.38e5		inactive
12	HmgD (High mobility group protein D)	DRSC04619	1.08e6	1.08e6	6.43e5	5.34e5	active
13	hrm (hermes)	DRSC04853	1.71e6	1.74e6	1.22e6	1.30e6	inactive
14	PIP5K59B (Phosphatidylinositol 4-phosphate 5-kinase 59B)	DRSC04290	1.34e6	1.37e6	1.00e6	1.11e6	inactive
15	PIP5K59B (Phosphatidylinositol 4-phosphate 5-kinase 59B)	DRSC04403	1.53e6	1.54e6	1.31e6	1.38e6	inactive
16	nebu (nebulosa)	DRSC09807	1.25e6	1.30e6	1.28e6	1.22e6	inactive
17	nebu (nebulosa)	DRSC09808	1.62e6	1.57e6	1.36e6	1.47e6	inactive
18	CG3679	DRSC19346	6.20e5		8.92e5		inactive
19	Syn (Synapsin)	DRSC16876	1.46e6	1.56e6	1.15e6	1.29e6	inactive
20	CG30414	DRSC04372	1.74e6	1.76e6	1.20e6	1.31e6	inactive
21	Nab2 (Nuclear polyadenosine RNA-binding 2)	DRSC14158	1.78e6	1.83e6	1.35e6	1.37e6	inactive
22	CG5909	DRSC15914	1.44e6	1.47e6	1.01e6	1.09e6	inactive
23	CG4896	DRSC00671	1.42e6	1.38e6	8.08e5	7.92e5	inactive
24	CG6638	DRSC10680	1.44e6	1.31e6	1.07e6	1.13e6	inactive
25	Non3 (Novel nucleolar protein 3)	DRSC16359	1.60e6	1.65e6	1.15e6	1.22e6	inactive
26	CG34188	DRSC05549	1.49e6	1.49e6	1.02e6	1.14e6	inactive
27	Mur29B (Mucin related 29B)	DRSC01018	1.52e6	1.57e6	1.01e6	1.14e6	inactive
28	Mur29B (Mucin related 29B)	DRSC02376	1.60e6	1.61e6	1.21e6	1.37e6	inactive
29	CG5882	DRSC15907	1.52e6	1.51e6	9.55e5	1.04e6	inactive
30	CG31274 + MESK4	DRSC13202	1.60e6	1.77e6	1.15e6	1.30e6	inactive
31	CG8520	DRSC07206	1.34e6	1.41e6	1.15e6	1.20e6	inactive
32	Srx (Sulfiredoxin)	DRSC20005	1.52e6	1.46e6	1.04e6	1.05e6	inactive
33	ppk5 (pickpocket 5)	DRSC11492	1.36e6	1.51e6	1.15e6	1.32e6	inactive
34	wapl (wings apart-like)	DRSC18851	5.20e5		7.55e5		inactive
35	Topors (Topoisomerase I-interacting protein)	DRSC06531	1.35e6	1.37e6	1.05e6	1.01e6	inactive
36	Drep3 (DNA fragmentation factor-related protein 3)	DRSC06312	1.27e6	1.27e6	7.04e5	8.60e5	inactive
37	CG32202	DRSC09989	1.62e6	1.80e6	1.53e6	1.61e6	inactive
38	CG32767	DRSC18386	1.75e6	1.89e6	1.11e6	1.29e6	inactive
39	CG6470	DRSC19994	1.48e6	1.50e6	1.06e6	1.21e6	inactive
40	Lgr4 (Leucine-rich repeat-containing G protein-coupled receptor 4)	DRSC18969	1.63e6	1.74e6	1.19e6	1.28e6	inactive
41	Lgr4 (Leucine-rich repeat-containing G protein-coupled receptor 4)	DRSC18970	1.48e6	2.05e6	1.14e6	1.27e6	inactive
42	Lgr4 (Leucine-rich repeat-containing G protein-coupled receptor 4)	DRSC19884	1.53e6	1.49e6	1.05e6	1.13e6	inactive
43	CG4766	DRSC17736	1.67e6	1.63e6	1.08e6	1.20e6	inactive
44	Stam (Signal transducing adaptor molecule)	DRSC03444	1.19e6	1.32e6	1.16e6	1.20e6	inactive
45	GLaz (Glial Lazarillo)	DRSC07431	1.47e6	1.53e6	1.09e6	1.22e6	inactive
46	pdm3 (pou domain motif 3)	DRSC06076	1.64e6	1.71e6	1.38e6	1.49e6	inactive
47	pdm3 (pou domain motif 3)	DRSC06490	1.52e6	1.64e6	1.25e6	1.37e6	inactive
48	CG14500	DRSC06471	1.52e6	1.62e6	1.21e6	1.27e6	inactive
49	spag (spaghetti)	DRSC04717	1.52e6	1.62e6	1.34e6	1.31e6	inactive
50	TotB (Turandot B)	DRSC15842	1.21e6	1.27e6	1.05e6	1.15e6	inactive
51	CG3662	DRSC00626	1.45e6	1.46e6	5.97e5	7.58e5	inactive
52	CG6225	DRSC15996	1.64e6	1.70e6	1.28e6	1.38e6	inactive
53	Wdr92 (WD repeat domain 92)	DRSC10187	1.33e6	1.45e6	1.26e6	1.32e6	inactive
54	CG42254 (retired record)	DRSC06194	1.49e6	1.47e6	1.19e6	1.30e6	inactive
55	Fer3HCH (Ferritin 3 heavy chain homologue)	DRSC19892	1.55e6	1.50e6	1.08e6	1.13e6	inactive
56	Utx (Utx histone demethylase)	DRSC02872	1.91e6	1.90e6	1.12e6	1.26e6	inactive
57	CG5104	DRSC11765	1.37e6	1.39e6	1.34e6	1.44e6	inactive
58	CR14033 (pseudo)	DRSC02358	1.31e6	1.38e6	5.60e5	7.79e5	inactive
59	CG2887	DRSC18235	1.57e6	1.50e6	1.05e6	1.13e6	inactive
